In the supplement of paper PMC12595434, “Development of retinoid nuclear receptor pathway antagonists through targeting aldehyde dehydrogenase 1A3” (iScience, 2025) one finds melting temperature shift data, which are given here for 73 targets.

Sequences of proteins named here, by UniProt entry; tags and fusion partners are left off. A change or cut given only in a name is not applied to a line headed by its entry.
UniProt P33552, whole entry: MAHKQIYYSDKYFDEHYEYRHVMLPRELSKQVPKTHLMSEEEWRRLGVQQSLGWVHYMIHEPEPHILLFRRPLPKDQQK
UniProt P33992: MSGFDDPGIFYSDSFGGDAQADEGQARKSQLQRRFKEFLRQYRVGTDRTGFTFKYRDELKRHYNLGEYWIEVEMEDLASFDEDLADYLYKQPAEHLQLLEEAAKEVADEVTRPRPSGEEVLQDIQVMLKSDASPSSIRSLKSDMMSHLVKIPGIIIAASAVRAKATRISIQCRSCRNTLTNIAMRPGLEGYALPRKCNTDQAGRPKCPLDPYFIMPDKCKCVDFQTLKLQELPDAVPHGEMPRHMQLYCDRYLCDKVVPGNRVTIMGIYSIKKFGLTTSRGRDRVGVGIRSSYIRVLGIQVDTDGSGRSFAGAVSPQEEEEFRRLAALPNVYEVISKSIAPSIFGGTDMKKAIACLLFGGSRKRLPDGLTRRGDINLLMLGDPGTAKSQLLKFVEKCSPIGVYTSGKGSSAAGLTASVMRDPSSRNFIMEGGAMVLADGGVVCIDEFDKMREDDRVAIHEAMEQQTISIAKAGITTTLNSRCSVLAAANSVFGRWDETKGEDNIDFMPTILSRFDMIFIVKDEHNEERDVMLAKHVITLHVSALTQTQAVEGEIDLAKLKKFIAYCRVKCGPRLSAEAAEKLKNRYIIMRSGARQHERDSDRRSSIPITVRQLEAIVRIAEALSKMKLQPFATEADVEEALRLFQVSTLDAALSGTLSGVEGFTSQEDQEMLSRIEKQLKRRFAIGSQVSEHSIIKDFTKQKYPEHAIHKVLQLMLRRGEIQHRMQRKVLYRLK
UniProt P30046: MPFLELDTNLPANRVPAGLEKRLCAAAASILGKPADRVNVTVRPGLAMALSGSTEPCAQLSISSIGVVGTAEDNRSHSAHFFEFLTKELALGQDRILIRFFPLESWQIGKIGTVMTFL
UniProt P20592: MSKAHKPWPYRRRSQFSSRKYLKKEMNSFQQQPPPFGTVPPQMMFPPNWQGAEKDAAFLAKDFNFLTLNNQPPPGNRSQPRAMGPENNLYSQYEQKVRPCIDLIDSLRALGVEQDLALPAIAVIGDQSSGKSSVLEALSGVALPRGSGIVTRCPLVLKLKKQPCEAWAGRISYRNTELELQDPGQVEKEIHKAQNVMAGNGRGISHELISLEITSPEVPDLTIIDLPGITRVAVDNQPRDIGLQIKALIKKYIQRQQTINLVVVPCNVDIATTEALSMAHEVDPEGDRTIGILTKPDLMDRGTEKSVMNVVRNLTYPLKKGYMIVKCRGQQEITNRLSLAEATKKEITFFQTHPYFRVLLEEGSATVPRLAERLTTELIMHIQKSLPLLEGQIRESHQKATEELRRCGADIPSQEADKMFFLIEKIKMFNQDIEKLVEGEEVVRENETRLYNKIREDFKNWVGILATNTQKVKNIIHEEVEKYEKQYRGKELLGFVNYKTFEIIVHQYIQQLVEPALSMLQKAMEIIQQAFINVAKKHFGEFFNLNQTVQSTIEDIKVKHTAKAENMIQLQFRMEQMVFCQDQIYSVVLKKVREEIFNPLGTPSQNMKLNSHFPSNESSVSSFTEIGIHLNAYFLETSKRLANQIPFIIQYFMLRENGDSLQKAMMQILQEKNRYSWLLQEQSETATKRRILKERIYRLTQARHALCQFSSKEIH
UniProt P21796, whole entry: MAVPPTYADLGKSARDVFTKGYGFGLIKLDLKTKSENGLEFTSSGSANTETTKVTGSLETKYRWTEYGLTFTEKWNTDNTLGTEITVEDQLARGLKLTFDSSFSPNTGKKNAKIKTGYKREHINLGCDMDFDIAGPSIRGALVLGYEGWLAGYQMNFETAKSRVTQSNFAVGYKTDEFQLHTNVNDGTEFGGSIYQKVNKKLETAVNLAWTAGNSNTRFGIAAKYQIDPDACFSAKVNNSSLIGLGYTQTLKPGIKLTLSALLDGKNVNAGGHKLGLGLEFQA
UniProt P31629, whole entry: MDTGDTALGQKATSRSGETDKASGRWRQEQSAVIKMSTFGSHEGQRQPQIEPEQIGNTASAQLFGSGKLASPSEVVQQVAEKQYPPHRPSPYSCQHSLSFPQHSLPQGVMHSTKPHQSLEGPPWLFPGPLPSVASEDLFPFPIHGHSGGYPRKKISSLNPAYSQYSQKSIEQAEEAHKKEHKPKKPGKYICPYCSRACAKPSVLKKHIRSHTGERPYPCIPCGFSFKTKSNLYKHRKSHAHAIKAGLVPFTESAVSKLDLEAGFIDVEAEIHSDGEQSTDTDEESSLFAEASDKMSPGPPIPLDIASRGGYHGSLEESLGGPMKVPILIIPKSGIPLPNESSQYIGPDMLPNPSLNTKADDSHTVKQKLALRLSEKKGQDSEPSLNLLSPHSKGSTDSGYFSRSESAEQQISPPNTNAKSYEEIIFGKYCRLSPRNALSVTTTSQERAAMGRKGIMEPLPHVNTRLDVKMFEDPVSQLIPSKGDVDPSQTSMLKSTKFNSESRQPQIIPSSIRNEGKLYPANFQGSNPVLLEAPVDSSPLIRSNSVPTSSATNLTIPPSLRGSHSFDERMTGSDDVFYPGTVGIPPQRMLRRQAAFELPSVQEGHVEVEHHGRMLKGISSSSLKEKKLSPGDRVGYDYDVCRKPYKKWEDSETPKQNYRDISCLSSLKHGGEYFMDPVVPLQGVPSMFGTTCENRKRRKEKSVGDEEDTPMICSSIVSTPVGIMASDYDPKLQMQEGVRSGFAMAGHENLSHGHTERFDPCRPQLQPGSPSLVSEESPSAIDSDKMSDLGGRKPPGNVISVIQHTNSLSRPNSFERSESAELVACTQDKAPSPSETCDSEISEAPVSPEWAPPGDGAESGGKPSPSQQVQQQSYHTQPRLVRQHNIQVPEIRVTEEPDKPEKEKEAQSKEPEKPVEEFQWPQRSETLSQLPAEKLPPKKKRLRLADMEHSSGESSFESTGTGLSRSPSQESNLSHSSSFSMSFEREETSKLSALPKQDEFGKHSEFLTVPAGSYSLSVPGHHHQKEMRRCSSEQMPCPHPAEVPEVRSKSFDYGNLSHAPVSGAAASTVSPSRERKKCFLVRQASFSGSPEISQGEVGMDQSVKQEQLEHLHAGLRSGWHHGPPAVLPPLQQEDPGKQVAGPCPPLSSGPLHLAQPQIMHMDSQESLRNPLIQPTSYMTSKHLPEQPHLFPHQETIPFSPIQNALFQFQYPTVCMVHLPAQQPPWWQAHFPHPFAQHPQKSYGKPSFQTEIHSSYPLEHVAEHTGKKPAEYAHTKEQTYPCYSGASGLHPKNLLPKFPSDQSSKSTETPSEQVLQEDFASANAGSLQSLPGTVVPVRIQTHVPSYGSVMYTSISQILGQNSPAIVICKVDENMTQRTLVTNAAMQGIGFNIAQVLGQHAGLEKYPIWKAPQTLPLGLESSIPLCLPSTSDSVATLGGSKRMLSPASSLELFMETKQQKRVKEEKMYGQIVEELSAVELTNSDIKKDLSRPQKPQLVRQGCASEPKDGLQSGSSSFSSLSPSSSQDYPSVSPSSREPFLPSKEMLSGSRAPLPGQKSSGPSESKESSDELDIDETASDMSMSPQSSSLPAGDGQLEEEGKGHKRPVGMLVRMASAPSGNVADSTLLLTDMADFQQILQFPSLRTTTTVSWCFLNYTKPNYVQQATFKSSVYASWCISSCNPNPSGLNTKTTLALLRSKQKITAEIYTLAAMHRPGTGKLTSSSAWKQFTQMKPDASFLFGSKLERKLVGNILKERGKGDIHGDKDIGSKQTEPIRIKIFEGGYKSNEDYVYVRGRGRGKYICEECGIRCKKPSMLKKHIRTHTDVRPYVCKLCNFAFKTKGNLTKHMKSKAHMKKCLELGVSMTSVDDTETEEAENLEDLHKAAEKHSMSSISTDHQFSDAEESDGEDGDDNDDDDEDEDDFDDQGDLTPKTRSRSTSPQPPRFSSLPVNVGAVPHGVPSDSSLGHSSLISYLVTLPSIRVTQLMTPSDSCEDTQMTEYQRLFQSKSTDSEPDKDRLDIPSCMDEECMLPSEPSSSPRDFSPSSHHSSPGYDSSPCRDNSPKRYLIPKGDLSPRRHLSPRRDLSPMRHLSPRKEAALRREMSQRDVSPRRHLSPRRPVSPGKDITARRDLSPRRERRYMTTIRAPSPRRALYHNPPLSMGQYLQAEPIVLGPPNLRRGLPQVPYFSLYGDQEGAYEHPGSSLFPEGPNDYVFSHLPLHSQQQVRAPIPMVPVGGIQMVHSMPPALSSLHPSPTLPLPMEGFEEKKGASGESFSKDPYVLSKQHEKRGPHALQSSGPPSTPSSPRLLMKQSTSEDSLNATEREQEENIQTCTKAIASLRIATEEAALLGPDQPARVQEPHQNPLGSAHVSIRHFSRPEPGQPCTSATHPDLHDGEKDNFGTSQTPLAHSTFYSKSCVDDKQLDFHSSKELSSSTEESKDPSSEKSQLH
UniProt P25787: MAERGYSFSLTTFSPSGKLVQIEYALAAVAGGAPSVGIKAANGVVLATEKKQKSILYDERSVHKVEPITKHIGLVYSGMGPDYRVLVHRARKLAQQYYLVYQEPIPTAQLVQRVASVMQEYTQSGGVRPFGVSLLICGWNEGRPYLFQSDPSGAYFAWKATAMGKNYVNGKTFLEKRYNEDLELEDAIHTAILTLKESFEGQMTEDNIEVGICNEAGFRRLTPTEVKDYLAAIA
UniProt P33316: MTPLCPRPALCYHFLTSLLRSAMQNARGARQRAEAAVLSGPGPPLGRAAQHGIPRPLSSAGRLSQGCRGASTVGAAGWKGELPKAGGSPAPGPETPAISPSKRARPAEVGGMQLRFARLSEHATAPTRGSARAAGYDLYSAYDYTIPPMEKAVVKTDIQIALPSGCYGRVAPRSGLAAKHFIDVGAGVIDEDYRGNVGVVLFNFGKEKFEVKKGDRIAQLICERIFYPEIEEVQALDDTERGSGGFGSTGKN
UniProt P26440: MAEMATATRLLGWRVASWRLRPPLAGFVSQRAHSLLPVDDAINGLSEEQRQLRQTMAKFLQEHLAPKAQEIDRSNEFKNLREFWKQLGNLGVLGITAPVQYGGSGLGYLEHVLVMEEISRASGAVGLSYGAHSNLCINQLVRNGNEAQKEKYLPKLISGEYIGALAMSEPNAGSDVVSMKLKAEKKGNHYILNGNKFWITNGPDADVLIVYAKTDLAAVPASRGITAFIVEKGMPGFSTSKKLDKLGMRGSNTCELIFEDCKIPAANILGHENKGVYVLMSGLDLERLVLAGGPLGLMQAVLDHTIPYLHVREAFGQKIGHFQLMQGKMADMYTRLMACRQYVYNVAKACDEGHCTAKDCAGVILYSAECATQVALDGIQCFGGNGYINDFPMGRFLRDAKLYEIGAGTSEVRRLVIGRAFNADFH
UniProt P29372, whole entry: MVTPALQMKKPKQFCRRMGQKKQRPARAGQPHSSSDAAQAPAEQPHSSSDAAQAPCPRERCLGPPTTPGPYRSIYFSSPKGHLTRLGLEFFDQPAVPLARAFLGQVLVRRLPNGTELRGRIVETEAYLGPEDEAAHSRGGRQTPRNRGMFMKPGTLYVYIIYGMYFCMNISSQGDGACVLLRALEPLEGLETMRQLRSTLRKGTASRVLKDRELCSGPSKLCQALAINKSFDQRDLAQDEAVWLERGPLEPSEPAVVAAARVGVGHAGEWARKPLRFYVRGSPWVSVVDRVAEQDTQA
UniProt P25325: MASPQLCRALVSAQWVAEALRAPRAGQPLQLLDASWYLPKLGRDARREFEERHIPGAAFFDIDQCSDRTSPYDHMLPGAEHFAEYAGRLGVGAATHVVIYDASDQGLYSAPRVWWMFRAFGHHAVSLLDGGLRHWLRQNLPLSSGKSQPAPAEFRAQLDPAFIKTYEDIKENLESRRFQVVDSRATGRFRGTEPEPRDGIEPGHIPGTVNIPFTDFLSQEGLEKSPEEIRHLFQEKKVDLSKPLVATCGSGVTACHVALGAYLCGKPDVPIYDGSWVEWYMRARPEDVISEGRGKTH
UniProt P20674, whole entry: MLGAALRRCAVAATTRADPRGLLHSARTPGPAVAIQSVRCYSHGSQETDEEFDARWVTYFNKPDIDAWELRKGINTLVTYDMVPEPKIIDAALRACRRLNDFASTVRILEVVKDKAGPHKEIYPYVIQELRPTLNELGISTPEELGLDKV
UniProt P20839, whole entry, looked up: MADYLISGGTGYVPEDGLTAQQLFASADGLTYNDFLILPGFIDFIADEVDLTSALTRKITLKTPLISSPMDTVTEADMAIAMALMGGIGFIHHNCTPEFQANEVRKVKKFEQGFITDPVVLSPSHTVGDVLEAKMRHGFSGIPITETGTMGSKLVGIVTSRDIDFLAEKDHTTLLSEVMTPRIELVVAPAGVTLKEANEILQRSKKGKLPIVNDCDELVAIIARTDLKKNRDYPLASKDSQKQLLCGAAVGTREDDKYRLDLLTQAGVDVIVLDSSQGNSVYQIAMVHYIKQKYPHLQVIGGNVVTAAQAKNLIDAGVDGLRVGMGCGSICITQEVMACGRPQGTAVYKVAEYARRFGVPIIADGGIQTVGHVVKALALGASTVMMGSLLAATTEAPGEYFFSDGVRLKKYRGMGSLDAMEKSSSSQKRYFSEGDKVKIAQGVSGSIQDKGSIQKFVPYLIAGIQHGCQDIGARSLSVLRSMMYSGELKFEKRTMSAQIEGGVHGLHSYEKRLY

Compound in this assay: CCc1cnccc1C(=O)Nc1cc2c(cc1F)NC(=O)CC2
Nature of the assay: melting temperature shift (DMSO Tm minus MBE1-treated Tm) in cellular thermal proteome profiling; higher = less thermal stabilization by MBE1 (negative = stabilized by MBE1). As to conditions: A375.

This is one part of the list. Single values of this set are uncertain.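 Many melting curves are irregular; where none melted, Tm was taken as 64 °C.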

Consider CFL1 (UniProt P23528), for which the melting temperature shift is, setting by setting: (MBE1 concentration: 100 nM) -1.35 °C; (MBE1 concentration: 1 uM) -0.154 °C.

For CKS2 (UniProt P33552), the melting temperature shift (MBE1 concentration: 100 nM) was -1 °C and the melting temperature shift (MBE1 concentration: 1 uM) is -1.79 °C.

UniProt P21589: the melting temperature shift (MBE1 concentration: 1 uM) was -2.79 °C.

Turning to CSTF2 (UniProt P33240), the melting temperature shift was -1.06 °C (MBE1 concentration: 100 nM) and -0.0805 °C (MBE1 concentration: 1 uM).

Turning to UniProt P21675, the melting temperature shift (MBE1 concentration: 100 nM) was -0.0256 °C.

Consider UniProt P20742, for which the melting temperature shift (MBE1 concentration: 1 uM) is -3.99 °C.

Turning to MCM5 (UniProt P33992), the melting temperature shift is -0.353 °C (MBE1 concentration: 100 nM) and 0.421 °C (MBE1 concentration: 1 uM).

CDC25B (UniProt P30305): the melting temperature shift reads like this: (MBE1 concentration: 100 nM) 0.189 °C; (MBE1 concentration: 1 uM) -0.238 °C.

In the case of UniProt P32456, the melting temperature shift (MBE1 concentration: 100 nM) is -0.531 °C.

As to OSBP (UniProt P22059), the melting temperature shift is -0.617 °C (MBE1 concentration: 100 nM) and -0.268 °C (MBE1 concentration: 1 uM).

For CMPK1 (UniProt P30085), the melting temperature shift reads like this: (MBE1 concentration: 100 nM) -0.305 °C; (MBE1 concentration: 1 uM) 0.342 °C.

In the case of RRM2 (UniProt P31350), the melting temperature shift is -2.64 °C (MBE1 concentration: 100 nM) and -2.46 °C (MBE1 concentration: 1 uM).

With PPIF (UniProt P30405), the melting temperature shift (MBE1 concentration: 100 nM) is -0.0939 °C and the melting temperature shift (MBE1 concentration: 1 uM) was -0.765 °C.

As to SFPQ (UniProt P23246), the melting temperature shift (MBE1 concentration: 100 nM) was -0.677 °C and the melting temperature shift (MBE1 concentration: 1 uM) was -0.494 °C.

For DDT (UniProt P30046), the melting temperature shift (MBE1 concentration: 1 uM) is -2.5 °C.

On to UniProt P27361, for which the melting temperature shift is 1.03 °C (MBE1 concentration: 100 nM) and 1.03 °C (MBE1 concentration: 1 uM).

In the case of UniProt P24863, the melting temperature shift (MBE1 concentration: 100 nM) is -0.731 °C.

Consider UniProt P20592, for which, where the note is “MBE1 concentration: 1 uM”, the melting temperature shift was -0.365 °C.

With VDAC1 (UniProt P21796), for the setting “MBE1 concentration: 1 uM”, the melting temperature shift is -0.583 °C.

Consider DLST (UniProt P36957), for which the melting temperature shift by setting is: (MBE1 concentration: 100 nM) -2.27 °C; (MBE1 concentration: 1 uM) -2.91 °C.

On to UniProt P31146, for which the melting temperature shift (MBE1 concentration: 100 nM) is 0.666 °C and the melting temperature shift (MBE1 concentration: 1 uM) was -0.171 °C.

On to LAP3 (UniProt P28838), for which, under “MBE1 concentration: 1 uM”, the melting temperature shift is -3.11 °C.

For the target AHCY (UniProt P23526), the melting temperature shift was -0.157 °C (MBE1 concentration: 100 nM) and -0.0435 °C (MBE1 concentration: 1 uM).

Turning to PAICS (UniProt P22234), where the note is “MBE1 concentration: 1 uM”, the melting temperature shift is -1.11 °C.

On to UniProt P31629, for which the melting temperature shift by setting is: (MBE1 concentration: 100 nM) 0.0188 °C; (MBE1 concentration: 1 uM) -2.57 °C.

As to PSMA2 (UniProt P25787), the melting temperature shift (MBE1 concentration: 1 uM) is -3.06 °C.

For the target UniProt P26378, where the note is “MBE1 concentration: 100 nM”, the melting temperature shift is -1.31 °C.

As for CTNNA1 (UniProt P35221), the melting temperature shift by setting is: (MBE1 concentration: 100 nM) -0.557 °C; (MBE1 concentration: 1 uM) 0.181 °C.

With PRKACB (UniProt P22694), the melting temperature shift was -0.256 °C (MBE1 concentration: 100 nM) and 0.867 °C (MBE1 concentration: 1 uM).

For the target UniProt P36507, the melting temperature shift runs as follows: (MBE1 concentration: 100 nM) 0.519 °C; (MBE1 concentration: 1 uM) 0.44 °C.

On to WEE1 (UniProt P30291), for which the melting temperature shift (MBE1 concentration: 100 nM) was -0.47 °C and the melting temperature shift (MBE1 concentration: 1 uM) is -2.5 °C.

Regarding CTH (UniProt P32929), where the note is “MBE1 concentration: 1 uM”, the melting temperature shift came to 0 °C.

For the target GK (UniProt P32189), the melting temperature shift is, setting by setting: (MBE1 concentration: 100 nM) -1.32 °C; (MBE1 concentration: 1 uM) -0.435 °C.

For the target UniProt P35125, the melting temperature shift (MBE1 concentration: 100 nM) is -1.25 °C.

For ITGA3 (UniProt P26006), for the setting “MBE1 concentration: 1 uM”, the melting temperature shift is -2.94 °C.

Consider DUT (UniProt P33316), for which the melting temperature shift (MBE1 concentration: 100 nM) was -0.496 °C and the melting temperature shift (MBE1 concentration: 1 uM) stood at 0.507 °C.

For ERP29 (UniProt P30040), the melting temperature shift reads like this: (MBE1 concentration: 100 nM) -1.26 °C; (MBE1 concentration: 1 uM) -1.49 °C.

As to IVD (UniProt P26440), the melting temperature shift is, setting by setting: (MBE1 concentration: 100 nM) -0.825 °C; (MBE1 concentration: 1 uM) 0.456 °C.

In the case of YWHAQ (UniProt P27348), the melting temperature shift (MBE1 concentration: 100 nM) was -0.309 °C and the melting temperature shift (MBE1 concentration: 1 uM) was -0.0045 °C.

On to MPG (UniProt P29372), for which the melting temperature shift is -0.416 °C (MBE1 concentration: 100 nM) and 0.656 °C (MBE1 concentration: 1 uM).

For ATP6V1E1 (UniProt P36543), the melting temperature shift was -1.01 °C (MBE1 concentration: 100 nM) and 0.269 °C (MBE1 concentration: 1 uM).

Take CDC25C (UniProt P30307): the melting temperature shift was -0.874 °C (MBE1 concentration: 100 nM) and 0.128 °C (MBE1 concentration: 1 uM).

In the case of TGFBR1 (UniProt P36897), the melting temperature shift worked out at 1.9 °C (MBE1 concentration: 100 nM) and 0.372 °C (MBE1 concentration: 1 uM).

For M6PR (UniProt P20645), the melting temperature shift (MBE1 concentration: 100 nM) was -3.25 °C and the melting temperature shift (MBE1 concentration: 1 uM) is -2.78 °C.

Regarding ATP5A1 (UniProt P25705), the melting temperature shift is, setting by setting: (MBE1 concentration: 100 nM) -2.17 °C; (MBE1 concentration: 1 uM) -2.73 °C.

Regarding POLD1 (UniProt P28340), the melting temperature shift runs as follows: (MBE1 concentration: 100 nM) -0.635 °C; (MBE1 concentration: 1 uM) -0.819 °C.

For the target MPST (UniProt P25325), the melting temperature shift was -0.0423 °C (MBE1 concentration: 100 nM) and -0.325 °C (MBE1 concentration: 1 uM).

With ARNT (UniProt P27540), the melting temperature shift is, setting by setting: (MBE1 concentration: 100 nM) -0.0244 °C; (MBE1 concentration: 1 uM) -0.171 °C.

Take TCEA1 (UniProt P23193): the melting temperature shift is, setting by setting: (MBE1 concentration: 100 nM) -1.44 °C; (MBE1 concentration: 1 uM) -0.778 °C.

For the target CHKA (UniProt P35790), the melting temperature shift (MBE1 concentration: 100 nM) was -1.19 °C and the melting temperature shift (MBE1 concentration: 1 uM) came out at 0.537 °C.

UBA1 (UniProt P22314): the melting temperature shift was 0.391 °C (MBE1 concentration: 100 nM) and 0.202 °C (MBE1 concentration: 1 uM).

Regarding EEF1B2 (UniProt P24534), the melting temperature shift turned out to be 0.69 °C (MBE1 concentration: 100 nM) and 0.342 °C (MBE1 concentration: 1 uM).

In the case of EPHA2 (UniProt P29317), the melting temperature shift was found to be 1.13 °C (MBE1 concentration: 100 nM) and 0.202 °C (MBE1 concentration: 1 uM).

With TPP2 (UniProt P29144), the melting temperature shift by setting is: (MBE1 concentration: 100 nM) -1.04 °C; (MBE1 concentration: 1 uM) -0.116 °C.

Regarding ATP6V1B2 (UniProt P21281), the melting temperature shift is, setting by setting: (MBE1 concentration: 100 nM) -0.691 °C; (MBE1 concentration: 1 uM) 0.743 °C.

Consider UniProt P28749, for which the melting temperature shift worked out at 0.128 °C (MBE1 concentration: 100 nM) and 0.0705 °C (MBE1 concentration: 1 uM).

Take NF1 (UniProt P21359): the melting temperature shift runs as follows: (MBE1 concentration: 100 nM) 0.0183 °C; (MBE1 concentration: 1 uM) -0.403 °C.

With SSFA2 (UniProt P28290), the melting temperature shift (MBE1 concentration: 100 nM) is -1.25 °C and the melting temperature shift (MBE1 concentration: 1 uM) is -0.533 °C.

On to EEF1G (UniProt P26641), for which the melting temperature shift is, setting by setting: (MBE1 concentration: 100 nM) 0.195 °C; (MBE1 concentration: 1 uM) 0.171 °C.

Turning to SP100 (UniProt P23497), the melting temperature shift reads like this: (MBE1 concentration: 100 nM) -0.966 °C; (MBE1 concentration: 1 uM) 0.745 °C.

Take UniProt P20933: the melting temperature shift by setting is: (MBE1 concentration: 100 nM) -0.579 °C; (MBE1 concentration: 1 uM) 1.25 °C.

In the case of FLNA (UniProt P21333), the melting temperature shift is 0.458 °C (MBE1 concentration: 100 nM) and -0.153 °C (MBE1 concentration: 1 uM).

For MYH10 (UniProt P35580), the melting temperature shift (MBE1 concentration: 100 nM) worked out at 0.666 °C and the melting temperature shift (MBE1 concentration: 1 uM) amounted to 0.33 °C.

As to UniProt P28676, the melting temperature shift runs as follows: (MBE1 concentration: 100 nM) -0.495 °C; (MBE1 concentration: 1 uM) 0.0305 °C.

As for PCMT1 (UniProt P22061), the melting temperature shift is -0.127 °C (MBE1 concentration: 100 nM) and 0.409 °C (MBE1 concentration: 1 uM).

Take COX5A (UniProt P20674): the melting temperature shift was -2.89 °C (MBE1 concentration: 100 nM) and -4.47 °C (MBE1 concentration: 1 uM).

For DCTD (UniProt P32321), the melting temperature shift (MBE1 concentration: 100 nM) is -2.7 °C and the melting temperature shift (MBE1 concentration: 1 uM) is -5.65 °C.

Take PTPN3 (UniProt P26045): the melting temperature shift is -0.325 °C (MBE1 concentration: 100 nM) and -0.0329 °C (MBE1 concentration: 1 uM).

LONP1 (UniProt P36776): the melting temperature shift was -0.806 °C (MBE1 concentration: 100 nM) and 0.581 °C (MBE1 concentration: 1 uM).

In the case of IMPDH1 (UniProt P20839), the melting temperature shift (MBE1 concentration: 100 nM) was -0.644 °C and the melting temperature shift (MBE1 concentration: 1 uM) is -0.248 °C.

For NUDT1 (UniProt P36639), the melting temperature shift (MBE1 concentration: 100 nM) is -0.966 °C and the melting temperature shift (MBE1 concentration: 1 uM) turned out to be 0.59 °C.

Consider ADSL (UniProt P30566), for which the melting temperature shift was -0.592 °C (MBE1 concentration: 100 nM) and 0.105 °C (MBE1 concentration: 1 uM).

SOAT1 (UniProt P35610): the melting temperature shift reads like this: (MBE1 concentration: 100 nM) -0.407 °C; (MBE1 concentration: 1 uM) 1.07 °C.
